Test results as given in publication PMC10413933.
These are yes or no findings as the source states them, for the method shown. In cells and extracts the contact can be indirect. Here binding means that the protein was enriched with, or labelled near, the bait; the list need not be complete.

Sequences of proteins named here, by UniProt entry; tags and fusion partners are left off. A change or cut given only in a name is not applied to a line headed by its entry.
UniProt Q9DAK3: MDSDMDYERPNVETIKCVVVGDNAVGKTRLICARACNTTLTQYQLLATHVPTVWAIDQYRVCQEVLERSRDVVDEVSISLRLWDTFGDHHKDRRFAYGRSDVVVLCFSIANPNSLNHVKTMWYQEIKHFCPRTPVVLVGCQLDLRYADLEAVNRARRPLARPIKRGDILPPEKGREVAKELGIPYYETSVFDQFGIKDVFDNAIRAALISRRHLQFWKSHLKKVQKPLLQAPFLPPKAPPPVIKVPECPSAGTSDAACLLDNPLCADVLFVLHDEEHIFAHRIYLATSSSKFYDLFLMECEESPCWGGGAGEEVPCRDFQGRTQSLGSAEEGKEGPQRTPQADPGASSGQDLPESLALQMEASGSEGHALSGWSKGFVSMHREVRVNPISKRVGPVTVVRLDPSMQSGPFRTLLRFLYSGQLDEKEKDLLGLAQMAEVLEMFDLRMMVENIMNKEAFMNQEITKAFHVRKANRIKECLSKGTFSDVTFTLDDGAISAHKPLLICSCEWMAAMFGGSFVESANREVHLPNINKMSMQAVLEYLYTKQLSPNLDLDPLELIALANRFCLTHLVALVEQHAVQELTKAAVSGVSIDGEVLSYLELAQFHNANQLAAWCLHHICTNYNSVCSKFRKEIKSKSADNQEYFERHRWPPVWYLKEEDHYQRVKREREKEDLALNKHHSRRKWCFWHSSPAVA
UniProt P09429: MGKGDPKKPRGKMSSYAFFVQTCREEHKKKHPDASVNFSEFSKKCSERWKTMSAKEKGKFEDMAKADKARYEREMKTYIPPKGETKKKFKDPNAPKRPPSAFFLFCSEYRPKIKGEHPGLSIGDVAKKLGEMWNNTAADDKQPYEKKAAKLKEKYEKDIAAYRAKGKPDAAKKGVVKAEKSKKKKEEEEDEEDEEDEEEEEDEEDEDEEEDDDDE

Target: B1B2–APEX2 (APEX2-tagged B1B2, lacking the C terminal region) (UniProt Q9DAK3)
Experiment: proximity labelling; APEX2 fusion constructs in HEK293 cells, MG132, biotin-phenol and 1 mM H2O2 for 1 min; biotinylated proteins enriched on streptavidin beads and identified by mass spectrometry; B1B2C–APEX2 compared with B1B2–APEX2

“High Mobility Group Box 1 (HMGB1) (from UniProt P09429 1-215)” was tested, and the binding was “binds”.
